Values from PubChem BioAssay AID493246 (Drosophila RNAi Screening Center, 2011).
The screen tested about 21,000 reagents; below is an unselected part of those that have a named target and a result. In the full data, 429 (2%) got an active call. 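Values are raw and not normalised between plates; calls rest on per-plate z-scores that were not deposited.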 Reagents against one gene are numbered here. Names joined by + are all predicted targets of the reagent. No sequences are given here. Not given: the amount of reagent, the time to read-out.

Aim: 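Identify essential fly genes by loss of cell viability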 (primary screen)
Cell system: Drosophila Kc and S2R+ cells
Knock-down reagent: long dsRNA against Drosophila genes
Measured: 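Cell number per well after knock-down, printed as raw plate values; calls were based on per-plate z-scores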
Scale: Kc cell number and S2R+ cell number: higher = more cells remaining
Active means: 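Active when the per-plate z-score of cell number is 3 or more in the direction of fewer cells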

Nsun5 (GeneID 7354421) — Kc cell number, rep 1: 1.57e6; Kc cell number, rep 2: 1.66e6; S2R+ cell number, rep 1: 1.27e6; S2R+ cell number, rep 2: 1.28e6; Call: inactive
Phax (GeneID 35926) — Kc cell number, rep 1: 1.56e6; Kc cell number, rep 2: 1.67e6; S2R+ cell number, rep 1: 1.24e6; S2R+ cell number, rep 2: 1.33e6; Call: inactive
CG9143 (GeneID 37296) — Kc cell number, rep 1: 1.26e6; Kc cell number, rep 2: 1.30e6; S2R+ cell number, rep 1: 1.09e6; S2R+ cell number, rep 2: 1.14e6; Call: inactive
Ythdc1 (GeneID 38420) — Kc cell number, rep 1: 1.39e6; Kc cell number, rep 2: 1.50e6; S2R+ cell number, rep 1: 1.20e6; S2R+ cell number, rep 2: 1.12e6; Call: inactive
Impbeta11 (GeneID 36732) — Kc cell number, rep 1: 1.64e6; Kc cell number, rep 2: 1.71e6; S2R+ cell number, rep 1: 1.37e6; S2R+ cell number, rep 2: 1.53e6; Call: inactive
CG32017 (GeneID 317823) — Kc cell number, rep 1: 1.14e6; Kc cell number, rep 2: 1.29e6; S2R+ cell number, rep 1: 1.03e6; S2R+ cell number, rep 2: 1.09e6; Call: inactive
Con (GeneID 38590) — Kc cell number, rep 1: 1.48e6; Kc cell number, rep 2: 1.63e6; S2R+ cell number, rep 1: 1.37e6; S2R+ cell number, rep 2: 1.17e6; Call: inactive
CG4282 (GeneID 36825) — Kc cell number, rep 1: 1.39e6; Kc cell number, rep 2: 1.53e6; S2R+ cell number, rep 1: 1.29e6; S2R+ cell number, rep 2: 1.33e6; Call: inactive
Drep1 (GeneID 36290) — Kc cell number, rep 1: 1.59e6; Kc cell number, rep 2: 1.66e6; S2R+ cell number, rep 1: 1.43e6; S2R+ cell number, rep 2: 1.55e6; Call: inactive
CG3199 (GeneID 41725) — Kc cell number, rep 1: 1.53e6; Kc cell number, rep 2: 1.46e6; S2R+ cell number, rep 1: 1.05e6; S2R+ cell number, rep 2: 1.18e6; Call: inactive
Tmem63 (GeneID 35779) — Kc cell number, rep 1: 1.65e6; Kc cell number, rep 2: 1.61e6; S2R+ cell number, rep 1: 1.40e6; S2R+ cell number, rep 2: 1.45e6; Call: inactive
CG13692 (GeneID 33216) — Kc cell number, rep 1: 1.52e6; Kc cell number, rep 2: 1.58e6; S2R+ cell number, rep 1: 1.01e6; S2R+ cell number, rep 2: 1.15e6; Call: inactive
Ag5r (GeneID 44631) — Kc cell number, rep 1: 5.01e5; S2R+ cell number, rep 1: 8.58e5; Call: inactive
CG34386 (GeneID 5740303) #1 — Kc cell number, rep 1: 1.57e6; Kc cell number, rep 2: 1.54e6; S2R+ cell number, rep 1: 8.97e5; S2R+ cell number, rep 2: 9.49e5; Call: inactive
CG34386 (GeneID 5740303) #2 — Kc cell number, rep 1: 1.54e6; Kc cell number, rep 2: 1.64e6; S2R+ cell number, rep 1: 1.20e6; S2R+ cell number, rep 2: 1.36e6; Call: inactive
Svil (GeneID 38306) #1 — Kc cell number, rep 1: 1.54e6; Kc cell number, rep 2: 1.63e6; S2R+ cell number, rep 1: 1.00e6; S2R+ cell number, rep 2: 1.15e6; Call: inactive
Svil (GeneID 38306) #2 — Kc cell number, rep 1: 1.43e6; Kc cell number, rep 2: 1.49e6; S2R+ cell number, rep 1: 1.30e6; S2R+ cell number, rep 2: 1.37e6; Call: inactive
Svil (GeneID 38306) #3 — Kc cell number, rep 1: 1.35e6; Kc cell number, rep 2: 1.31e6; S2R+ cell number, rep 1: 9.70e5; S2R+ cell number, rep 2: 1.21e6; Call: inactive
Svil (GeneID 38306) #4 — Kc cell number, rep 1: 8.16e5; Kc cell number, rep 2: 9.93e5; S2R+ cell number, rep 1: 4.80e5; S2R+ cell number, rep 2: 5.68e5; Call: active
Svil (GeneID 38306) #5 — Kc cell number, rep 1: 1.52e6; Kc cell number, rep 2: 1.39e6; S2R+ cell number, rep 1: 1.02e6; S2R+ cell number, rep 2: 1.33e6; Call: inactive
CG14183 (GeneID 40192) — Kc cell number, rep 1: 1.55e6; Kc cell number, rep 2: 1.59e6; S2R+ cell number, rep 1: 1.35e6; S2R+ cell number, rep 2: 1.34e6; Call: inactive
Naam (GeneID 42348) — Kc cell number, rep 1: 1.36e6; Kc cell number, rep 2: 1.46e6; S2R+ cell number, rep 1: 1.01e6; S2R+ cell number, rep 2: 9.90e5; Call: inactive
mRpL51 (GeneID 34186) — Kc cell number, rep 1: 1.11e6; Kc cell number, rep 2: 1.01e6; S2R+ cell number, rep 1: 7.12e5; S2R+ cell number, rep 2: 6.80e5; Call: active
snoRNA:Me28S-A982b + Uhg4 + snoRNA:Me28S-G3255a + 1 more — Kc cell number, rep 1: 1.43e6; Kc cell number, rep 2: 1.55e6; S2R+ cell number, rep 1: 9.44e5; S2R+ cell number, rep 2: 1.04e6; Call: inactive
Bem46 (GeneID 44441) — Kc cell number, rep 1: 1.64e6; Kc cell number, rep 2: 1.65e6; S2R+ cell number, rep 1: 1.16e6; S2R+ cell number, rep 2: 1.25e6; Call: inactive
ckn (GeneID 36673) — Kc cell number, rep 1: 1.34e6; Kc cell number, rep 2: 1.44e6; S2R+ cell number, rep 1: 9.99e5; S2R+ cell number, rep 2: 9.14e5; Call: inactive
eIF5 (GeneID 32566) — Kc cell number, rep 1: 5.43e5; S2R+ cell number, rep 1: 8.02e5; Call: inactive
